# Measurements published in paper PMC9368926.
# Columns and labels:
# Experiment in all cases: two-hybrid; NF-YCs as bait in pDEST32 (BD), SAPKs as prey in pDEST22 (AD); Y2H Gold strain; SD/-Trp/-Leu and SD/-Trp/-Leu/-His/-Ade medium
# [1] = biological target: OsNF-YC10 (rice (Oryza sativa))
# [2] = biological target: OsNF-YC11 (rice (Oryza sativa))
# [3] = biological target: OsNF-YC12 (rice (Oryza sativa))
# [4] = biological target: OsNF-YC8 (rice (Oryza sativa))
# [5] = biological target: OsNF-YC9 (rice (Oryza sativa))
Binder,binding [1],binding [2],binding [3],binding [4],binding [5]
"SAPK6 (enzyme, UniProt Q6ZI44 1-365) MEKYELLKDIGSGNFGVARLMRNRETKELVAMKYIPRGLKIDENVAREIINHRSLRHPNIIRFKEVVLTPTHLAIVMEYAAGGELFDRICSAGRFSEDESRYFFQQLICGVSYCHFMQICHRDLKLENTLLDGSPAPRLKICDFGYSKSSLLHSKPKSTVGTPAYIAPEVLSRREYDGKMADVWSCGVTLYVMLVGAYPFEDPDDPKNFRKTIGRIVSIQYKIPEYVHISQDCRQLLSRIFVANPAKRITIREIRNHPWFMKNLPRELTEAAQAKYYKKDNSARTFSDQTVDEIMKIVQEAKTPPPSSTPVAGFGWTEEEEQEDGKNPDDDEGDRDEEEGEEGDSEDEYTKQVKQAHASCDLQKS",binds,no binding,no binding,no binding,no binding
"SAPK10 (enzyme, UniProt Q75H77 1-362) MDRAALTVGPGMDMPIMHDGDRYELVRDIGSGNFGVARLMRSRADGQLVAVKYIERGDKIDENVQREIINHRSLRHPNIIRFKEVILTPTHLAIVMEYASGGELFERICNAGRFSEDEARFFFQQLISGVSYCHSMQVCHRDLKLENTLLDGSTAPRLKICDFGYSKSSVLHSQPKSTVGTPAYIAPEVLLKKEYDGKIADVWSCGVTLYVMLVGAYPFEDPDEPKNFRKTIQRILGVQYSIPDYVHISPECRDLIARIFVANPATRISIPEIRNHPWFLKNLPADLMDDSKMSSQYEEPEQPMQSMDEIMQILAEATIPAAGSGGINQFLNDGLDLDDDMEDLDSDPDLDVESSGEIVYAM",binds,no binding,no binding,no binding,no binding
"SAPK2 (enzyme, UniProt Q0D4J7 1-339) MERYEVIKDIGSGNFGVAKLVRDVRTKELFAVKFIERGQKIDENVQREIMNHRSLRHPNIVRFKEVVLTPTHLAIVMEYAAGGELFERICSAGRFSEDEARFFFQQLISGVSYCHSMQICHRDLKLENTLLDGSIAPRLKICDFGYSKSSLLHSQPKSTVGTPAYIAPEVLARKEYDGKVADVWSCGVTLYVMLVGAYPFEDPDEPRNFRKTITRILSVQYMVPDYVRVSMECRHLLSRIFVANPEQRITIPEIKNHPWFLKNLPIEMTDEYQMSVQMNDINTPSQGLEEIMAIIQEARKPGDGSKFSGQIPGLGSMELDDVDTDDIDVEDSGDFVCAL",no binding,no binding,no binding,no binding,no binding
"SAPK5 (enzyme, UniProt Q7XKA8 1-370) MEKYEPVREIGAGNFGVAKLMRNKETRELVAMKFIERGNRIDENVFREIVNHRSLRHPNIIRFKEVVVTGRHLAIVMEYAAGGELFERICEAGRFHEDEARYFFQQLVCGVSYCHAMQICHRDLKLENTLLDGSPAPRLKICDFGYSKSSLLHSRPKSTVGTPAYIAPEVLSRREYDGKLADVWSCGVTLYVMLVGAYPFEDPKDPKNFRKTISRIMSVQYKIPEYVHVSQPCRHLLSRIFVANPYKRISMGEIKSHPWFLKNLPRELKEEAQAVYYNRRGADHAASSASSAAAAAAFSPQSVEDIMRIVQEAQTVPKPDKPVSGYGWGTDDDDDDQQPAEEEDEEDDYDRTVREVHASVDLDMSNLQIS",no binding,no binding,no binding,no binding,no binding
"SAPK7 (enzyme, UniProt Q7XQP4 1-359) MERYELLKDIGAGNFGVARLMRNKETKELVAMKYIPRGLKIDENVAREIINHRSLRHPNIIRFKEVVVTPTHLAIVMEYAAGGELFDRICNAGRFSEDEARYFFQQLICGVSYCHFMQICHRDLKLENTLLDGSPAPRLKICDFGYSKSSLLHSKPKSTVGTPAYIAPEVLSRREYDGKTADVWSCGVTLYVMLVGAYPFEDPDDPKNFRKTIGRIMSIQYKIPEYVHVSQDCRQLLSRIFVANPAKRITIREIRNHPWFLKNLPRELTEAAQAMYYKKDNSAPTYSVQSVEEIMKIVEEARTPPRSSTPVAGFGWQEEDEQEDNSKKPEEEQEEEEDAEDEYDKQVKQVHASGEFQLS",no binding,no binding,no binding,no binding,no binding
"SAPK8 (enzyme, UniProt Q7Y0B9 1-371) MAAAGAGAGAPDRAALTVGPGMDMPIMHDSDRYELVRDIGSGNFGVARLMRDRRTMELVAVKYIERGEKIDDNVQREIINHRSLKHPNIIRFKEVILTPTHLAIVMEYASGGELFERICKNVRFSEDEARYFFQQLISGVSYCHSMQVCHRDLKLENTLLDGSPAPRLKICDFGYSKSSVLHSQPKSTVGTPAYIAPEVLLKKEYDGKTADVWSCGVTLYVMVVGAYPFEDPEEPKNFRKTIQRILNVQYSIPENVDISPECRHLISRIFVGDPSLRITIPEIRSHGWFLKNLPADLMDDDSMSSQYEEPDQPMQTMDQIMQILTEATIPPACSRINHILTDGLDLDDDMDDLDSDSDIDVDSSGEIVYAM",no binding,no binding,no binding,no binding,no binding

# Results are given in words; binding and its absence hold for the method and conditions named. For part of these data: Binding can be weak; no strength is given.
